Experimental data as given in the supplement of paper PMC10849652.
Some of the results follow.

By UniProt entry, the sequences of proteins in these tests, tags left out. Where a name states a change or a piece, a line headed by the entry shows the natural chain unless it says otherwise.
UniProt Q53EU6: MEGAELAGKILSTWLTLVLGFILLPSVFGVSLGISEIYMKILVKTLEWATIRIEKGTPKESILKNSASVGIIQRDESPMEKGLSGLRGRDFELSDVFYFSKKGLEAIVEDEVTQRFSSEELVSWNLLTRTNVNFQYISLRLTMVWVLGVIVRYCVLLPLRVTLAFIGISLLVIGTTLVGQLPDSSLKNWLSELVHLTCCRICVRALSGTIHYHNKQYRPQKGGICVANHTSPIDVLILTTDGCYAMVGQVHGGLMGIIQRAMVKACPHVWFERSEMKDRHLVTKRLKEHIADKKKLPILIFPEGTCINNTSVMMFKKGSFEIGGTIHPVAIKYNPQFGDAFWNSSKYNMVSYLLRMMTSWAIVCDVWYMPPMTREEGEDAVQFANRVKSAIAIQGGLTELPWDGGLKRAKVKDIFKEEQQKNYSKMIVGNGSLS
UniProt P62873, whole entry, looked up: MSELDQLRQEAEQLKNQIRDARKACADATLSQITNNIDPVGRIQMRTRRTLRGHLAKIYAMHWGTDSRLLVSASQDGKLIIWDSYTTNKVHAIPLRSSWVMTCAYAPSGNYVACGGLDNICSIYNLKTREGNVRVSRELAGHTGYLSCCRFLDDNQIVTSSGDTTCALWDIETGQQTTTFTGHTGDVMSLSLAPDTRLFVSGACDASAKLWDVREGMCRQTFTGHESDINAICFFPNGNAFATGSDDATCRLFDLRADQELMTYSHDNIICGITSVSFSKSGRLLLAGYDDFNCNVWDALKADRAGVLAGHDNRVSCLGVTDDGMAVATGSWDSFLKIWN
UniProt Q14691: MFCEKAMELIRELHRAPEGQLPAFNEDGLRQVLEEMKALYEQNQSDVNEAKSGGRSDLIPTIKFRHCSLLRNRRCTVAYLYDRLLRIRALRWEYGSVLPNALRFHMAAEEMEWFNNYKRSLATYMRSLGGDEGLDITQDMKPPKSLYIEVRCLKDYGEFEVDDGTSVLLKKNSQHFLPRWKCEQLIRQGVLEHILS
UniProt Q8IXQ4: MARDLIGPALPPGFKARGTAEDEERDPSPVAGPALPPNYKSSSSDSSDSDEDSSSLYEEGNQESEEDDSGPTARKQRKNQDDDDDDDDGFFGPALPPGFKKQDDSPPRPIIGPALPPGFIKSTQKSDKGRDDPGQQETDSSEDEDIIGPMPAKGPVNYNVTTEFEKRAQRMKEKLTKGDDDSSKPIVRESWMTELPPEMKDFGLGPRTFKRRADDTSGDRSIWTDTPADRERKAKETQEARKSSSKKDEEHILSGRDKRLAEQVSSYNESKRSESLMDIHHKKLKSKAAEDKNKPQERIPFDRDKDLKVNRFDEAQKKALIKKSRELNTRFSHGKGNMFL
UniProt Q9Y5P6: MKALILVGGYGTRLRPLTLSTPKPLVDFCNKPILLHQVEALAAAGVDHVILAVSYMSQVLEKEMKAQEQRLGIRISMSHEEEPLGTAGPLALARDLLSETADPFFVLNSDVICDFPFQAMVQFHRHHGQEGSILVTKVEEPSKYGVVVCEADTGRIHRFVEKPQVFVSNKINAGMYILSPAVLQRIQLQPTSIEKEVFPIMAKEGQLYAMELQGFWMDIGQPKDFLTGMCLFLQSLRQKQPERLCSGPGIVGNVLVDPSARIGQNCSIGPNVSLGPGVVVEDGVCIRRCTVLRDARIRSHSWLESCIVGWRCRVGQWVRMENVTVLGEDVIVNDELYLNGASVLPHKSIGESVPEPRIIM
UniProt Q9HAV0, whole entry, looked up: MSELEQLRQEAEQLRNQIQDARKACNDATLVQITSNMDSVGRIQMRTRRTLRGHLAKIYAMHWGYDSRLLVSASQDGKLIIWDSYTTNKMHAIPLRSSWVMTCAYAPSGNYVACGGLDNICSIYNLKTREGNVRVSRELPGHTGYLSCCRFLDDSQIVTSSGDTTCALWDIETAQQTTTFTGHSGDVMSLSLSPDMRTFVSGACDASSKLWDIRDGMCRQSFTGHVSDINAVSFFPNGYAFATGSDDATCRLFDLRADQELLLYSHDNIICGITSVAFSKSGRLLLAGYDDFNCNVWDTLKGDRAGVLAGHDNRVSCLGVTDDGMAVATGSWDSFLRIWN
UniProt Q9BYB4: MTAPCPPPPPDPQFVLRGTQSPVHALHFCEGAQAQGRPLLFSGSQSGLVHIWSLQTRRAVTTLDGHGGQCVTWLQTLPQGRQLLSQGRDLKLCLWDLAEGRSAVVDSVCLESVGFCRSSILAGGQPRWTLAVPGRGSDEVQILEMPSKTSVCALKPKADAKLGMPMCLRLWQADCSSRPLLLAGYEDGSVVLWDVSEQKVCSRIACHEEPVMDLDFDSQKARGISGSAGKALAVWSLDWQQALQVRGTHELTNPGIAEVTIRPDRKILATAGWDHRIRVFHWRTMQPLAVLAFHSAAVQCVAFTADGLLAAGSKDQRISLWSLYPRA
UniProt Q13098: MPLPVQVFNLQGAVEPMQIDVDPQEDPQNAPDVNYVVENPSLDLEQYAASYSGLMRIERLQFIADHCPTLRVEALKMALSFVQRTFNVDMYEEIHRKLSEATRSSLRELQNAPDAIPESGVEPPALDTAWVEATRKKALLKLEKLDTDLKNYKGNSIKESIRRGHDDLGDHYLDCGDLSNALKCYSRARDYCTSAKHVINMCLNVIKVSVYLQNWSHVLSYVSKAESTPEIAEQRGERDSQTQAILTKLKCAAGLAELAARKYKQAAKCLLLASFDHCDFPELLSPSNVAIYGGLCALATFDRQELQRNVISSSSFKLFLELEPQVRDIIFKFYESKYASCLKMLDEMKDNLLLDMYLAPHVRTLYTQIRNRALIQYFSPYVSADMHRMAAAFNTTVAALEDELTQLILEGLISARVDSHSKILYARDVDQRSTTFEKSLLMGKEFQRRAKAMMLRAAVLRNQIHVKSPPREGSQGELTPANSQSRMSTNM
UniProt Q86SX6: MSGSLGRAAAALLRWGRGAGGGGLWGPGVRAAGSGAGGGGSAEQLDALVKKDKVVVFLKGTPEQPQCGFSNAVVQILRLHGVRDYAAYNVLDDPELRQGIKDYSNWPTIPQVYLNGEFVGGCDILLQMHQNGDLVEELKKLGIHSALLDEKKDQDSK
UniProt Q9BRX5: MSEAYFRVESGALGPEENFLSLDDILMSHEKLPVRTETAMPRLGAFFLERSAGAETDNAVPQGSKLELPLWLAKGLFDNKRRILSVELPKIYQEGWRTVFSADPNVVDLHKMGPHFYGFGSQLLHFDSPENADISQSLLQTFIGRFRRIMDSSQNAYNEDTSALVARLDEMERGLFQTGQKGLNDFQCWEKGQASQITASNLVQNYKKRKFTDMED
UniProt P46926: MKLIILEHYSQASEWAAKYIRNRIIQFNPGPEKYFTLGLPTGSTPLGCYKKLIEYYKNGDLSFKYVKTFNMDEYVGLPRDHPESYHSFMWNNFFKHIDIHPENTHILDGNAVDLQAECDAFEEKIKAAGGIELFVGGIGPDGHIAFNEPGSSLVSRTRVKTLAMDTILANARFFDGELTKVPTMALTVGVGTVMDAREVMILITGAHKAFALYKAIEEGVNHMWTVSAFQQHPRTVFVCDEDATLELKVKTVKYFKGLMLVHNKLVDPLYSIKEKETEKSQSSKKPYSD
UniProt Q9HCN4, whole entry, looked up: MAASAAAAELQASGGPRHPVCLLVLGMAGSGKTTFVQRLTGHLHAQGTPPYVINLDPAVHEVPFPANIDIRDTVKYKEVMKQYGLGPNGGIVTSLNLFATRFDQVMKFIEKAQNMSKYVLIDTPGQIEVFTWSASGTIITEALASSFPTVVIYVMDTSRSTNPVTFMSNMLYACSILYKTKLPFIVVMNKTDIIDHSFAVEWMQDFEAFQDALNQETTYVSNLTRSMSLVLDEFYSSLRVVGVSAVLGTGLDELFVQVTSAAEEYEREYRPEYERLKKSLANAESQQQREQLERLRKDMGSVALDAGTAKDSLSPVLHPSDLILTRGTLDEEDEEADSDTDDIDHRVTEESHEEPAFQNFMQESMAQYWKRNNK
UniProt B7ZAQ6: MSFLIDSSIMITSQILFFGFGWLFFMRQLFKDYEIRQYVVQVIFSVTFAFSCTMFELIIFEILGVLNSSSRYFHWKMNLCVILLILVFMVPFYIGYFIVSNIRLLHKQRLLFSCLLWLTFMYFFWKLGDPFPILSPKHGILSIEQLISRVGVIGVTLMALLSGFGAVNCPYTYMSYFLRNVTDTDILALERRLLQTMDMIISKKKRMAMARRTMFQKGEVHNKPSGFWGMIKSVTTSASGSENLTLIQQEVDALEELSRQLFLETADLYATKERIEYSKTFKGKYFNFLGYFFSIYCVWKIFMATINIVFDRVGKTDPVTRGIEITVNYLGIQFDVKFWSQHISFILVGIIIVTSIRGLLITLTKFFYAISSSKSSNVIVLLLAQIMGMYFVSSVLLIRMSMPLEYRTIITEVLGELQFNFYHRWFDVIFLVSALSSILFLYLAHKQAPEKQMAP
UniProt Q8TBA6: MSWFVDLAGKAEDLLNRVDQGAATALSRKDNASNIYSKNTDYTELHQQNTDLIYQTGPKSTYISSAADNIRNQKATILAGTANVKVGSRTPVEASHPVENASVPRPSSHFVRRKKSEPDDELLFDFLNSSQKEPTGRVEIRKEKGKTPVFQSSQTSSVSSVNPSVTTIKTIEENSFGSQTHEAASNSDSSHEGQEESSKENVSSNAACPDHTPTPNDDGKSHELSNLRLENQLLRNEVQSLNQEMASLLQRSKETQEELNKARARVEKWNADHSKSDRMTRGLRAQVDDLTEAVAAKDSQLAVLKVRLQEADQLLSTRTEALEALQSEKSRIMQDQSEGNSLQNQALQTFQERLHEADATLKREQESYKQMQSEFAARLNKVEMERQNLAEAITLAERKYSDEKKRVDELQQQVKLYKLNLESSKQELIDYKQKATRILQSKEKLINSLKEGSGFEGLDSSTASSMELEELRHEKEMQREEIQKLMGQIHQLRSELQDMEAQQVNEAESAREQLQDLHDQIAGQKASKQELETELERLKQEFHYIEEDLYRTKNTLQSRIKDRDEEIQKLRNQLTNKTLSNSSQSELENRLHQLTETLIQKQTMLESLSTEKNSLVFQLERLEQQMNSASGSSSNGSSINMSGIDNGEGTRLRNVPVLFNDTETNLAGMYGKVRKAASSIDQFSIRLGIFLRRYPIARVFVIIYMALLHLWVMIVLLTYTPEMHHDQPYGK
UniProt Q9Y223: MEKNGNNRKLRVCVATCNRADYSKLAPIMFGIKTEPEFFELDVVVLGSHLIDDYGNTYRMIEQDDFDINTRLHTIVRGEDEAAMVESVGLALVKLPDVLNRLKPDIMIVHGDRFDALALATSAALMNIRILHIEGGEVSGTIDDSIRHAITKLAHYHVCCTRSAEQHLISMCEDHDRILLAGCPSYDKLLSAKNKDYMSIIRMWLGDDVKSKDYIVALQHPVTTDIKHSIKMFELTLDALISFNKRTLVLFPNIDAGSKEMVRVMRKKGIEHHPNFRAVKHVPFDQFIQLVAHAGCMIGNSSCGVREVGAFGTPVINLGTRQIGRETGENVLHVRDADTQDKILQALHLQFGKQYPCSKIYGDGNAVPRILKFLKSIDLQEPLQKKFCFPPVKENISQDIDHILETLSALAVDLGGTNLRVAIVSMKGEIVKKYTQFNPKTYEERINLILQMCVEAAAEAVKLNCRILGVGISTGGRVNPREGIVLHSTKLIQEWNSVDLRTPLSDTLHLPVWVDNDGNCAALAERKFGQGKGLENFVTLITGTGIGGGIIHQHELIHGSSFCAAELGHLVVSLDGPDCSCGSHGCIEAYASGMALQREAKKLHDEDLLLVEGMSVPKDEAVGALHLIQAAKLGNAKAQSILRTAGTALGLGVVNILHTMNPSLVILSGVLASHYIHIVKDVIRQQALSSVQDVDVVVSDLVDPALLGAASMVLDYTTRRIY
UniProt Q96EK6: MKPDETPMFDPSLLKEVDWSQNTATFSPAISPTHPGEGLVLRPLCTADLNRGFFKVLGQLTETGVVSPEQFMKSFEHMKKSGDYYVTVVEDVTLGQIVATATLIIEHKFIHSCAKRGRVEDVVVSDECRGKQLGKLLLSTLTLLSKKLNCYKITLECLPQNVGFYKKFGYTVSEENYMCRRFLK
UniProt Q9UBQ7: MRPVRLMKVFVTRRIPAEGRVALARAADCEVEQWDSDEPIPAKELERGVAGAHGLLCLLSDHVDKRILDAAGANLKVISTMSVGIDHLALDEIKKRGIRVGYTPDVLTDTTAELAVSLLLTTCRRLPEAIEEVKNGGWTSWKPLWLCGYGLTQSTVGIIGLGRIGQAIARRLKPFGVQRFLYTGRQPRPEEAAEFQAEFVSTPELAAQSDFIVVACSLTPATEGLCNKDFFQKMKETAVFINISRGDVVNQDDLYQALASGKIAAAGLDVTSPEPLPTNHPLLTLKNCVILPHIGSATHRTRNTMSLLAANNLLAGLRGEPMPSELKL
UniProt P62993, whole entry, looked up: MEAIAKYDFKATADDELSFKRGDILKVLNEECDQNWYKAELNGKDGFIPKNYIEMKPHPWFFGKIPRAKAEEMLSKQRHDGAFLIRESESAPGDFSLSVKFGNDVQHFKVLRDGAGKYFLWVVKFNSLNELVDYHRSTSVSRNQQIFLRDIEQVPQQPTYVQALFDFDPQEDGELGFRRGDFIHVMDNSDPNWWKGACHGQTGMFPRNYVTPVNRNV

compound: CCn1c(C(=O)N(C2CC2)C2CC2)cc2c3c(ncn3C)c(Nc3cc(C)n(C)n3)nc21; test: log2 fold change, soluble protein after heating vs DMSO (PISA); higher = thermal stabilisation; K562 cells, 10 uM, 30 min; active = over 0.2 and 3.5 SD of the protein, either way, in both replicates (recomputed)
Method in brief: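 Soluble protein was defined as the supernatant after 21,000xg for 90 min. It came from K562 cells at 2×10^6 cells/mL given 10 μM compound for 30 min, heated in aliquots for 3 min across 48°C-58°C, pooled, and extracted in PBS with 0.5% NP-40 at 4°C, and was quantified by TMTpro 16plex LC-MS/MS with equalised channel sums. Thermal stability against control samples, from duplicates, is reported as log2 fold change.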

log2 fold change, inactive:
GPAT3 (UniProt Q53EU6) 0.047
GK (UniProt P32189) 0.006
GPATCH11 (UniProt Q8N954) -0.049
GNB1 (UniProt P62873) -0.005
GINS1 (UniProt Q14691) 0.02
GNAI2 isoform 4 (UniProt P04899) 0.035
GPALPP1 (UniProt Q8IXQ4) -0.015
GMPPB isoform 2 (UniProt Q9Y5P6) 0.002
GNB4 (UniProt Q9HAV0) -0.089
GPHN isoform 2 (UniProt Q9NQX3) 0.011
GIPC1 (UniProt O14908) -0.014
GNB1L (UniProt Q9BYB4) -0.033
GMNN (UniProt O75496) 0.007
GMDS (UniProt O60547) 0.029
GPS1 isoform 7 (UniProt Q13098) 0.006
GINS4 (UniProt Q9BRT9) -0.001
GM2A (UniProt P17900) 0.007
GLRX5 (UniProt Q86SX6) 0.034
GINS3 (UniProt Q9BRX5) -0.02
GNPDA1 (UniProt P46926) 0.024
GPN1 isoform 5 (UniProt Q9HCN4) 0.021
GPR89A (UniProt B7ZAQ6) -0.01
GOLGA5 (UniProt Q8TBA6) -0.022
GNE isoform 2 (UniProt Q9Y223) -0.027
GNPNAT1 (UniProt Q96EK6) -0.013
GLOD4 isoform 2 (UniProt Q9HC38) -0.015
GRHPR (UniProt Q9UBQ7) 0.014
GPN3 isoform 2 (UniProt Q9UHW5) -0.002
GLRX2 isoform 2 (UniProt Q9NS18) 0.099
GMPR2 isoform 2 (UniProt Q9P2T1) -0.007
GRSF1 (UniProt Q12849) 0.043
GRB2 (UniProt P62993) 0.006

For convenience, part of the list above:
log2 fold change, inactive:
GPHN isoform 2 (UniProt Q9NQX3) 0.011
GIPC1 (UniProt O14908) -0.014
GNB1L (UniProt Q9BYB4) -0.033
GMNN (UniProt O75496) 0.007
GMDS (UniProt O60547) 0.029
GPS1 isoform 7 (UniProt Q13098) 0.006
GINS4 (UniProt Q9BRT9) -0.001
GM2A (UniProt P17900) 0.007
GLRX5 (UniProt Q86SX6) 0.034
